# PubChem BioAssay AID652243 – Drosophila RNAi Screening Center | 2013
# Assay: 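Fly genes required for human androgen receptor driven transcription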 (primary screen)
# System: Drosophila S2R+ cells
# Reagent: long dsRNA against Drosophila genes
# Time to read-out: 72 h (48 h, then 24 h hormone)
# Treatment: synthetic androgen R1881 at 10 nM for 24 h
# Measurement: 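Firefly light from an androgen-responsive reporter and Renilla control light per well, raw and unnormalised, for each of two replicates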
# Reading the numbers: firefly reporter light: higher = more light from androgen-responsive reporter; Renilla control light: higher = more constitutive control signal (cell number, transfection)
# Rule for the call: 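Across duplicate plates, a knock-down whose log firefly/Renilla ratio shifted a set fold down or up from the GFP/LacZ control mean was a hit; the downward cut appears as both 1.5 and 3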
# Calls: active = hit: reporter lowered or raised; inactive = no hit
# The screen tested about 24,000 reagents; shown is an unselected part of those with a known target gene and a result. In the full data, 246 (1%) got an active call. 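Plates not normalised; calls are printed but the firefly/Renilla ratio behind them is not deposited; fold cut for lowering reported inconsistently.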 Raw values vary from plate to plate and are shown uncorrected. Unmarked entries are inactive. A plus sign joins genes that one reagent is predicted to hit. No sequences are given here. Not stated in the record: the amount of reagent.
gene knocked down,amplicon,"firefly reporter light, replicate 1","firefly reporter light, replicate 2","Renilla control light, replicate 1","Renilla control light, replicate 2"
CG40160 + CR41243,DRSC38711,9.25e5,6.10e5,2.18e6,1.80e6
Dpm3,DRSC37866,7.34e5,8.49e5,1.46e6,1.74e6
CG8839,DRSC07285,1.27e6,1.06e6,1.82e6,1.65e6
CG31126,DRSC14623,2.09e5,2.66e5,2.05e6,2.65e6
Targ2,DRSC21970,7.59e5,7.14e5,1.52e6,1.46e6
Ctps,DRSC09342,1.09e6,7.60e5,5.00e5,2.62e5
Ctps,DRSC10728,9.35e5,7.52e5,1.35e6,1.17e6
Ctps,DRSC10729,1.73e5,1.50e5,1.74e6,1.75e6
png,DRSC18582,2.22e5,2.47e5,4.48e6,3.82e6
png,DRSC26812,4.08e5,3.55e5,7.54e5,7.46e5
CG4882,DRSC04495,2.71e5,2.40e5,1.52e6,8.26e5
CG4882,DRSC29963,5.04e5,4.96e5,1.08e6,1.30e6
CG15548,DRSC15086,3.11e5,2.94e5,2.77e6,2.82e6
CG15548,DRSC26941,3.55e5,2.63e5,7.01e5,4.11e5
CG15650,DRSC04241,2.18e5,2.17e5,1.87e6,1.54e6
Osi2,DRSC12174,79438,88238,1.19e6,1.24e6
Osi2,DRSC28374,2.60e5,5.69e5,1.01e6,1.60e6
Mcm3,DRSC18679,85534,1.10e5,6.67e5,4.65e5
Mcm3,DRSC25729,6.86e5,5.02e5,5.59e5,6.36e5
CG12003,DRSC08214,1.47e5,1.40e5,1.96e6,1.45e6
Gagr,DRSC10441,18324,24144,1.91e5,2.32e5
Mettl14,DRSC03073,6.77e5,9.28e5,1.54e6,1.30e6
Gr28b,DRSC02291,1.96e5,1.84e5,1.86e6,1.83e6
Gr28b,DRSC02292,1.64e5,1.71e5,1.25e6,1.08e6
Gr28b,DRSC29459,7.16e5,6.15e5,1.14e6,1.14e6
Def,DRSC07398,4.10e5,3.39e5,2.24e6,1.79e6
Cyp1,DRSC20234,99017,85197,3.96e5,5.37e5
Cyp1,DRSC27284,6.13e5,5.70e5,7.11e5,7.36e5
Remo,DRSC19710,3.36e5,3.21e5,3.98e6,4.40e6
spn-D,DRSC22641,1.04e6,7.13e5,1.99e6,1.18e6
Snap29,DRSC04721,1.53e5,1.79e5,1.63e6,1.75e6
Snap29,DRSC24658,2.45e5,1.94e5,1.25e6,5.16e5
Csl4,DRSC02944,3.50e5,3.26e5,2.95e6,3.14e6
Csl4,DRSC22664,8.18e5,8.18e5,1.68e6,1.40e6
Daxx,DRSC03255,6.05e5,6.85e5,2.33e6,2.28e6
Daxx,DRSC29680,3.65e5,9.33e5,7.73e5,7.73e5
CG30350,DRSC07690,3.16e5,3.52e5,1.89e6,2.12e6
dpr8,DRSC19406,5.36e5,6.44e5,3.77e6,3.92e6
dpr8,DRSC19600,5.00e5,4.50e5,3.99e6,4.12e6
dpr8,DRSC19938,5.04e5,6.20e5,2.74e6,2.48e6
dpr8,DRSC19939,5.27e5,4.41e5,3.55e6,4.22e6

Just “firefly reporter light, replicate 1”, for 5 of the entries above:
Snap29 [DRSC04721] = 1.53e5
Snap29 [DRSC24658] = 2.45e5
Csl4 [DRSC02944] = 3.50e5
Csl4 [DRSC22664] = 8.18e5
Daxx [DRSC03255] = 6.05e5
